# Laboratory results as given in PubChem BioAssay AID504834 (National Center for Advancing Translational Sciences (NCATS), 2011).
# Values joined by “and” are separate entries in the source; they are usually repeats but may differ in a detail not shown here. Equal entries are not always repeated. Among all 320,000 compounds or so, about 22,000 (6.9%) were called active. The inconclusive results got no clear call from the source; some entries with a clear call stand among them for comparison. The call rests on the fitted dose curve; in most records, active means well fitted inhibition curve with a large enough effect; inconclusive means small, poorly fitted or top-dose-only effect, or another doubt; inactive means no such curve, though single readings can be large or run the other way. Potencies beside an inconclusive call are fits to weak or partial responses and may not hold up.
# Assay: Primary qHTS for delayed death inhibitors of the malarial parasite plastid, 96 hour incubation
# Settings: P. falciparum luciferase reporter growth; series mostly up to 28.7 µM; activity change, negative = inhibition: at the top concentration
# In short: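 Compounds incubated with erythrocytes infected by luciferase-expressing P. falciparum (2% hematocrit, 0.05% parasitemia final) for 96 hours, 37 C in 5% CO2. Growth inhibition scored as decreased luciferase luminescence.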
# On the % scale 0 is the no-effect control and ±100 the full control effect; potency means the concentration at half of the fitted maximal effect.
Structure (SMILES),Potency,"activity change, negative = inhibition"
NNC(=S)NC1CCCCCCCCCCC1,active: 10.4 µM,–
O=C(CSCc1cnn(-c2ccccc2)c1-n1cccc1)N1CCN(Cc2ccccc2)CC1,"inconclusive: 0.0131 µM [inhibitor, full curve, poor fit]",–
Nc1nc(NCc2ccccc2)n(-c2ccccc2)n1,–,inactive: 10.3%
CCCOc1ccc(CNC(=O)C2CCN(C(=O)N3CCOc4ccccc43)CC2)cc1,"inconclusive: 11.7 µM [inhibitor, single point]",–
COc1ccc(CCN2CCCn3c2nc2c3c(=O)n(CC(N)=O)c(=O)n2C)cc1OC,–,inactive: 8.6%
CCCn1nnc(NC(=O)/C=C/c2ccc(C(C)C)cc2)n1,"inconclusive: 8.28 µM [inhibitor, partial curve, poor fit]",–
O=C(NNC(=O)C1CC1)Nc1ccc(Cl)cc1,–,inactive: -25.7%
CCc1ccccc1N1C(=O)CC(=O)NC1=O,"inconclusive: 18.5 µM [inhibitor, single point]",–
Cc1ccc(/C=C/C(=O)Nc2cccc3cccnc23)o1,–,inactive: 117%
CCn1c(SCC(=O)OCc2ccccc2)nnc1-c1ccco1,–,inactive: -27.2%
COc1ccc(OC)c2c(N3CCN(C)CC3)cc(C(F)(F)F)nc12,"inconclusive: 13.1 µM [inhibitor, partial curve, poor fit]",–
CN1CCc2c(sc(/N=C/c3c[nH]c4ccccc34)c2C(N)=O)C1,active: 3.7 µM,–
CC(=O)c1ccc(N2CCN(CC3CCCCC3)CC2)cc1,"inconclusive: 18.5 µM [inhibitor, single point]",–
COCCn1c(=O)[nH]c2cc(C(=O)N3CCN(c4cccc(C)c4C)CC3)ccc2c1=O,"inconclusive: 11.7 µM [inhibitor, partial curve]",–
CCOC(=O)C1(Cc2cccc(OC)c2)CCN(Cc2ccc3c(c2)OCCO3)CC1,"inconclusive: 13.1 µM [inhibitor, single point]",–
CCOc1cc2[nH]c(=S)n(Cc3ccc(C(=O)NCCOC)cc3)c(=O)c2cc1OCC,"inconclusive: 3.7 µM [inhibitor, partial curve, poor fit]",–
Cc1cc(C)nc(NC(=O)CN2C(=O)c3ccccc3C2=O)n1,"inconclusive: 18.5 µM [inhibitor, single point]",–
CCNC(=O)c1ccc(-n2nc(C(F)(F)F)c3c2CCCC3)cc1,active: 7.38 µM,–
CC(C)N1CCN(Cc2cccs2)CC1CCO (stereo not drawn),"inconclusive: 18.5 µM [inhibitor, single point]",–
COc1ccc(NC(=S)NC(=O)/C=C/c2ccccc2)cc1,–,inactive: -30.3%
Cc1cccc(C)c1NC1=NCCCS1,"inconclusive: 12 µM [inhibitor, partial curve, poor fit] and inconclusive: 18.5 µM [inhibitor, single point]",–
CC(=O)n1cc(N(C(=O)CCl)c2ccc(Cl)cc2)c2ccccc21,"inconclusive: 6.57 µM [inhibitor, partial curve]",–
CCOC(=O)N1CCN(C(=O)Cn2cnc3ccccc3c2=O)CC1,"inconclusive: 4.15 µM [inhibitor, single point]",–
Cc1ccc(NC(=O)Cn2nc(C(=O)O)c3ccccc3c2=O)cc1S(=O)(=O)N1CCOCC1,–,inactive: 39.2%
CCn1c(NCc2ccccn2)nc2c1c(=O)n(C)c(=O)n2C,–,inactive: -6.96%

Structure (SMILES),Potency,"activity change, negative = inhibition"
Cc1ccc2cccc(OCc3ccc(F)cc3)c2n1,"inconclusive: 18.5 µM [inhibitor, single point]",–
O=C(c1ccccc1)c1cc2ccccc2oc1=O,–,inactive: 62.4%
COc1ccc(CC(=O)N(C)Cc2cccc(OC)c2OC)cc1S(=O)(=O)N1CCOCC1,–,inactive: -2.12%
COc1cccc(CNC(=O)C2CCC(CNS(=O)(=O)c3cccc4nsnc34)CC2)c1 (stereo not drawn),"inconclusive: 6.57 µM [inhibitor, partial curve, poor fit]",–
COc1ccc2cc3cc(C(=O)N4CCN(C5CCCCC5)CC4)oc3nc2c1,–,inactive: -21.2%
Cc1ccc(C2C(C#N)=C(N)Oc3n[nH]c(-c4cccs4)c32)cc1 (stereo not drawn),"inconclusive: 18.5 µM [inhibitor, single point]",–
CCN1CCN(C(=O)CCc2nnc3ccc(N4CCN(c5cccc(OC)c5)CC4)nn23)CC1,"inconclusive: 18.5 µM [inhibitor, single point]",–
Cc1ccc(NC(=O)COc2ccc(Cl)cc2Cl)cc1S(=O)(=O)N1CCOCC1,"inconclusive: 9.28 µM [inhibitor, partial curve, poor fit]",–
CCOC(=O)C1(Cc2ccc(Cl)cc2)CCN(C(=O)CCc2cnccn2)CC1,"inconclusive: 0.0657 µM [inhibitor, full curve, poor fit]",–
CCN(CC)CC#CCC(C)(c1ccccc1)c1ccccc1,active: 6.57 µM,–
CC(=O)Nc1ccc(NC(=O)C(Cc2ccccc2)NC(=O)C2CCCCC2)cc1 (stereo not drawn),"inconclusive: 9.28 µM [inhibitor, partial curve, poor fit]",–
Cn1c(=O)c2c(nc(NCc3cccnc3)n2Cc2ccc(Cl)cc2)n(C)c1=O,"inconclusive: 5.22 µM [inhibitor, partial curve]",–
Cc1nc2ccccn2c1CN(C)C(=O)C1CCC(=O)N(CCc2cccc(F)c2)C1 (stereo not drawn),"inconclusive: 10.4 µM [inhibitor, single point]",–
O=C(O)CNC(=O)c1ccc(NC(=O)/C(=C/c2ccccc2)NC(=O)c2ccccc2)cc1,–,inactive: 19.1%
CC(C)(C)OC(=O)NCCCC[C@H](NC(=O)c1nc[nH]c1C(=O)N1CCN(C(=O)OC(C)(C)C)CC1)C(=O)OC(C)(C)C,active: 8.28 µM,–
COc1cccc(N2CCN(CC(=O)NC3=Nc4ccccc4N=C(C)C3c3ccccc3)CC2)c1 (stereo not drawn),"inconclusive: 4.65 µM [inhibitor, partial curve]",–
O=C(CSc1ccc(-c2cccnc2)nn1)Nc1ccc(F)cc1,"inconclusive: 7.38 µM [inhibitor, partial curve, poor fit]",–
NS(=O)(=O)c1ccc(CCNc2nc(CN3CCOCC3)nc3sc4c(c23)CCC4)cc1,"inconclusive: 13.1 µM [inhibitor, single point]",–
CCC(=O)N1CCc2cc(S(=O)(=O)CCC(=O)NCCc3ccccc3)ccc21,"inconclusive: 11.7 µM [inhibitor, single point]",–
COc1ccc(/C=C/c2n[nH]c(=O)c(C#N)c2C)cc1,–,inactive: 8.73%
c1ccc(-n2ncc3c(NCCN4CCCCC4)ncnc32)cc1,–,inactive: 393%
O=C(NCCc1ccc(Cl)cc1)C1CCCN(S(=O)(=O)N2CCCCCC2)C1 (stereo not drawn),"inconclusive: 18.5 µM [inhibitor, single point]",–
CCC(=O)NC(c1ccco1)c1cc(Cl)c2cccnc2c1OC (stereo not drawn),"inconclusive: 13.1 µM [inhibitor, single point]",–
CN(C)C(=O)CSc1nnc(-c2ccc(F)cc2)c2ccccc12,"inconclusive: 16.5 µM [inhibitor, single point]",–
COc1cc(NC(=O)CSc2ncnc3sc4c(c23)CCC(C)C4)c(C(=O)O)cc1OC (stereo not drawn),"inconclusive: 5.22 µM [inhibitor, partial curve]",–

Structure (SMILES),Potency,"activity change, negative = inhibition"
c1ccc(Oc2cccc(OCCCn3cncn3)c2)cc1,–,inactive: -1.2%
CCc1ccc2c(c1)c(N=NC1=NC(=O)CS1)c(O)n2CC,"inconclusive: 0.0147 µM [inhibitor, full curve, poor fit]",–
O=C1NC(=O)/C(=C/c2ccc(OS(=O)(=O)c3ccc(F)cc3F)cc2)N1,"inconclusive: 10.4 µM [inhibitor, single point]",–
Cc1ccc(OCCn2ccnc2)c(C)c1,–,inactive: 1.25%
O=C(CNc1cc(S(=O)(=O)N2CCOCC2)ccc1NCC1CCCO1)Nc1ccc(F)c(F)c1 (stereo not drawn),"inconclusive: 13.1 µM [inhibitor, single point]",–
Cc1cc(N2CCN(C)CC2)nc(=S)[nH]1,–,inactive: -3.82%
CCN(C(=O)CSc1nnc(-c2c[nH]c3ccccc23)o1)C1CCS(=O)(=O)C1 (stereo not drawn),"inconclusive: 10.4 µM [inhibitor, partial curve, poor fit]",–
CCOc1ccccc1C(=O)NCC(=O)OCC(=O)c1ccc2c(c1)OCCO2,"inconclusive: 0.131 µM [inhibitor, full curve, poor fit]",–
Cc1ccc(N2C(=O)c3ccccc3C2C(=O)c2cc(C)ccc2O)cc1 (stereo not drawn),active: 2.62 µM,–
O=S(=O)(c1ccc(Cl)cc1)N1CCC(n2cccc2)CC1,–,inactive: 1.78%
Cc1occc1-c1nnc(SCC(=O)N2CCN(c3ccccc3F)CC2)n1C,active: 3.7 µM,–
COc1ccc(Cl)cc1NC(=S)NCc1ccco1,–,inactive: 13.4%
CC(=O)N1CCN(Cc2nc3cc(NC(=O)c4ccccc4C)ccc3n2C)CC1,"inconclusive: 0.0465 µM [inhibitor, full curve, poor fit]",–
Cc1cc(C(F)F)nn1CC(=O)NC1CCCCCC1,–,inactive: -19.5%
Nc1ccc(N)cc1,"inconclusive: 19 µM [inhibitor, single point]",–
CC(C(=O)Nc1cccnc1)C1Sc2ccccc2NC1=O (stereo not drawn),–,inactive: 34.2%
Clc1ccccc1CSC1=NCCN1,–,inactive: 23%
O=C(N/N=C/c1ccncc1)c1nn(Cc2ccccc2)c(=O)c2ccccc12,"inconclusive: 10.4 µM [inhibitor, single point]",–
O=C(CCCc1nc(-c2ccccc2)no1)NC1CCCCC1,–,inactive: -0.45%
COC(=O)c1cc(=O)n(CCc2ccccc2F)c(=Nc2ccc(F)c(Cl)c2)s1,–,inactive: -16.7%
CC(C)C(=O)N(Cc1ccccc1)c1ccccn1,"inconclusive: 18.5 µM [inhibitor, single point]",–
O=C(N/N=C/c1cccs1)c1[nH]ncc1Br,–,inactive: 92.2%
CCn1ncc(S(=O)(=O)Nc2cccnc2)c1C,"inconclusive: 6.57 µM [inhibitor, partial curve, poor fit]",–

# Quoted from the listing.
# In Potency, CN(C)C(=O)CSc1nnc(-c2ccc(F)cc2)c2ccccc12 has inconclusive: 16.5 µM [inhibitor, single point]
# In Potency, CCCOc1ccc(CNC(=O)C2CCN(C(=O)N3CCOc4ccccc43)CC2)cc1 has inconclusive: 11.7 µM [inhibitor, single point]
# In Potency, CC(=O)N1CCN(Cc2nc3cc(NC(=O)c4ccccc4C)ccc3n2C)CC1 has inconclusive: 0.0465 µM [inhibitor, full curve, poor fit]
# In Potency, CCCn1nnc(NC(=O)/C=C/c2ccc(C(C)C)cc2)n1 has inconclusive: 8.28 µM [inhibitor, partial curve, poor fit]
